Test results published in PMC10981689.
These are yes or no findings as the source states them, for the method shown. Binding seen in cells or lysates may run through a third protein. Some binding calls cover weakened binding; strength is not graded here. Sequences can lack the tags named with a protein.

Amino acid sequences for entries named in this document (tags omitted).
UniProt Q80SY3: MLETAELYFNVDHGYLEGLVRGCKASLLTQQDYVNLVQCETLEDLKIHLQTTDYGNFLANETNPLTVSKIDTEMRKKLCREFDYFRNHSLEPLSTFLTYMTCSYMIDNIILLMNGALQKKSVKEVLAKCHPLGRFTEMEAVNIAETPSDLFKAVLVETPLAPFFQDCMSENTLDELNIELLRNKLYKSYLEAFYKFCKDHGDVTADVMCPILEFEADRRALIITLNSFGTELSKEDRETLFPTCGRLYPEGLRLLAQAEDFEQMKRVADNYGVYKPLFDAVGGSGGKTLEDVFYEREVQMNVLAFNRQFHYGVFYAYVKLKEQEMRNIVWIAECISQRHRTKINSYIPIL

Target: T1, Myc-tagged TM4SF19 (transmembrane 4 L six family member 19) (mouse) (UniProt E9Q9H8)
T1 sequence: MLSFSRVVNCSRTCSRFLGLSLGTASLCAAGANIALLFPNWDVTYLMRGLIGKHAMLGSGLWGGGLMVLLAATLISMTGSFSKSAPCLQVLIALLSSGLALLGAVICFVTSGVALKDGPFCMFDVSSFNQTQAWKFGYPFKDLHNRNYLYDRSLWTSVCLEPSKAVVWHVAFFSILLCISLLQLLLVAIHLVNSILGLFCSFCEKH
Test: co-IP; lysate of RAW264.7 macrophages overexpressing Myc-fused TM4SF19 (50 mM Tris-HCl pH 7.6, 150 mM NaCl, 2 mM EDTA, protease inhibitor); anti-Myc or control IgG on Protein A/G magnetic beads, 300 ug lysate, 4 h at 4 °C; washed five times in TBS with 0.05% Tween-20; eluted with 0.1 M glycine pH 2.0; immunoblot

Substance: ATP6V0B (from UniProt Q91V37 1-205)
- binding: binds

Substance: ATP6V0D2 (from UniProt Q80SY3 1-350)
- binding: binds
